# Assay results from the supplement of paper PMC8728848.
# This is one part of the list.
# Tests used:
# Test in all cases: glycan array binding signal (z-score within array); higher = stronger binding
# Conditions in all cases: glycan notation: IUPAC condensed, linker removed
# Fuc(a1-2)Gal = target: Fuc(a1-2)Gal
# Summary of the method: (§1)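 Arrays were curated from the Consortium for Functional Glycomics database, 3228 in total, and kept only where the protein sequence was available. Binding is expressed as a within-array Z-score. This score was averaged across arrays of the same protein sequence at different concentrations or buffers and across linkers, and negative values can be read as non-binding.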
# Fuc(a1-2)Gal(b1-3)GalNAc = target: Fuc(a1-2)Gal(b1-3)GalNAc
# Summary of the method: as §1
# [1] = target: Fuc(a1-2)Gal(b1-3)GalNAc(a1-3)[Fuc(a1-2)]Gal(b1-4)Glc
# Summary of the method: as §1
# [2] = target: Fuc(a1-2)Gal(b1-3)GalNAc(a1-3)[Fuc(a1-2)]Gal(b1-4)GlcNAc
# Summary of the method: as §1
# [3] = target: Fuc(a1-2)Gal(b1-3)GalNAc(b1-3)Gal
# Summary of the method: as §1
# [4] = target: Fuc(a1-2)Gal(b1-3)GalNAc(b1-3)Gal(a1-4)Gal(b1-4)Glc
# Summary of the method: as §1
# [5] = target: Fuc(a1-2)Gal(b1-3)GalNAc(b1-4)[Neu5Ac(a2-3)]Gal(b1-4)Glc
# Summary of the method: as §1
# Fuc(a1-2)Gal(b1-3)GlcNAc = target: Fuc(a1-2)Gal(b1-3)GlcNAc
# Summary of the method: as §1
# [6] = target: Fuc(a1-2)Gal(b1-3)GlcNAc(b1-2)Man(a1-3)[Fuc(a1-2)Gal(b1-3)GlcNAc(b1-2)Man(a1-6)]Man(b1-4)GlcNAc(b1-4)GlcNAc
# Summary of the method: as §1
# [7] = target: Fuc(a1-2)Gal(b1-3)GlcNAc(b1-2)Man(a1-3)[Fuc(a1-2)Gal(b1-3)GlcNAc(b1-2)Man(a1-6)]Man(b1-4)GlcNAc(b1-4)[Fuc(a1-6)]GlcNAc
# Summary of the method: as §1
# [8] = target: Fuc(a1-2)Gal(b1-3)GlcNAc(b1-3)Gal(b1-4)Glc
# Summary of the method: as §1
# [9] = target: Fuc(a1-2)Gal(b1-3)GlcNAc(b1-3)GalNAc
# Summary of the method: as §1
# [10] = target: Fuc(a1-2)Gal(b1-3)GlcNAc(b1-3)[Fuc(a1-2)Gal(b1-3)GlcNAc(b1-6)]GalNAc
# Summary of the method: as §1
# [11] = target: Fuc(a1-2)Gal(b1-3)GlcNAc(b1-3)[Gal(b1-4)GlcNAc(b1-6)]Gal(b1-4)Glc
# Summary of the method: as §1
# [12] = target: Fuc(a1-2)Gal(b1-3)GlcNAc(b1-3)[Neu5Ac(a2-6)Gal(b1-4)GlcNAc(b1-6)]Gal(b1-4)Glc
# Summary of the method: as §1
# [13] = target: Fuc(a1-2)Gal(b1-3)GlcNAc6S
# Summary of the method: as §1
# [14] = target: Fuc(a1-2)Gal(b1-3)[Fuc(a1-4)]GlcNAc
# Summary of the method: as §1
# [15] = target: Fuc(a1-2)Gal(b1-3)[Fuc(a1-4)]GlcNAc(b1-2)Man(a1-3)[Fuc(a1-2)Gal(b1-3)[Fuc(a1-4)]GlcNAc(b1-2)Man(a1-3)]Man(b1-4)GlcNAc(b1-4)GlcNAc
# Summary of the method: as §1
# [16] = target: Fuc(a1-2)Gal(b1-3)[Fuc(a1-4)]GlcNAc(b1-2)Man(a1-3)[Fuc(a1-2)Gal(b1-3)[Fuc(a1-4)]GlcNAc(b1-2)Man(a1-6)]Man(b1-4)GlcNAc(b1-4)[Fuc(a1-6)]GlcNAc(b1-4)[Fuc(a1-6)]GlcNAc
# Summary of the method: as §1
# [17] = target: Fuc(a1-2)Gal(b1-3)[Fuc(a1-4)]GlcNAc(b1-3)[Fuc(a1-3)[Gal(b1-4)]GlcNAc(b1-6)]Gal(b1-4)Glc
# Summary of the method: as §1
# [18] = target: Fuc(a1-2)Gal(b1-3)[Fuc(a1-4)]GlcNAc(b1-3)[Gal(b1-4)GlcNAc(b1-6)]Gal(b1-4)Glc
# Summary of the method: as §1
# [19] = target: Fuc(a1-2)Gal(b1-4)Fuc(a1-3)]GlcNAc(b1-2)Man(a1-3)[Fuc(a1-2)Gal(b1-4)[Fuc(a1-3)]GlcNAc(b1-2)Man(a1-6)]Man(b1-4)GlcNAc(b1-4)GlcNAc
# Summary of the method: as §1
# Fuc(a1-2)Gal(b1-4)Glc = target: Fuc(a1-2)Gal(b1-4)Glc
# Summary of the method: as §1
# Fuc(a1-2)Gal(b1-4)Glc6S = target: Fuc(a1-2)Gal(b1-4)Glc6S
# Summary of the method: as §1
# Fuc(a1-2)Gal(b1-4)GlcNAc = target: Fuc(a1-2)Gal(b1-4)GlcNAc
# Summary of the method: as §1
# [20] = target: Fuc(a1-2)Gal(b1-4)GlcNAc(b1-2)Man
# Summary of the method: as §1
# [21] = target: Fuc(a1-2)Gal(b1-4)GlcNAc(b1-2)Man(a1-3)[Fuc(a1-2)Gal(b1-4)GlcNAc(b1-2)Man(a1-6)]Man(b1-4)GlcNAc(b1-4)GlcNAc
# Summary of the method: as §1
# [22] = target: Fuc(a1-2)Gal(b1-4)GlcNAc(b1-2)Man(a1-3)[Fuc(a1-2)Gal(b1-4)GlcNAc(b1-2)Man(a1-6)]Man(b1-4)GlcNAc(b1-4)[Fuc(a1-6)]GlcNAc
# Summary of the method: as §1
# [23] = target: Fuc(a1-2)Gal(b1-4)GlcNAc(b1-2)[Fuc(a1-2)Gal(b1-4)GlcNAc(b1-4)]Man(a1-3)[Fuc(a1-2)Gal(b1-4)GlcNAc(b1-2)Man(a1-6)]Man(b1-4)GlcNAc(b1-4)GlcNAc
# Summary of the method: as §1
# [24] = target: Fuc(a1-2)Gal(b1-4)GlcNAc(b1-3)Gal(b1-4)GlcNAc
# Summary of the method: as §1
binder,measurement,setting,value
"R2-fiber (Pseudomonas aeruginosa), Q9S576 (protein) HHHHHHKVAKDLVVSLAYQVRTEDGVLVDESPVSAPLDYLHGHGSLISGLETALEGHEVGDKFDVAVGANDAYGQYDENLVQRVPKDVFMGVDELQVGMRFLAETDQGPVPVEITAVEDDHVVVDGNHMLAGQNLKFNVEVVAIREATEEELAHGHVHGAHDHHHDHDHDGCCGGHGHDHGHEHGGEGCCGGKGNGGCGCHENLYFQGVTAGMALAATDIPGLDASKLVSGVLAEQRLPVFARGLATAVSNSSDPNTATVPLMLTNHANGPVAGRYFYIQSMFYPDQNGNASQIATSYNATSEMYVRVSYAANPSIREWLPWQRCDIGGSFTKEADGELPGGVNLDSMVTSGWWSQSFTAQAASGANYPIVRAGLLHVYAASSNFIYQTYQAYDGESFYFRCRHSNTWFPWRRMWHGGDFNPSDYLLKSGFYWNALPGKPATFPPSAHNHDVGQLTSGILPLARGGVGSNTAAGARSTIGAGVPATASLGASGWWRDNDTGLIRQWGQVTCPADADASITFPIPFPTLCLGGYANQTSAFHPGTDASTGFRGATTTTAVIRNGYFAQAVLSWEAFGR",glycan array binding signal (z-score),Fuc(a1-2)Gal,-0.134
same,glycan array binding signal (z-score),Fuc(a1-2)Gal(b1-3)GalNAc,0.532
same,glycan array binding signal (z-score),[1],-1
same,glycan array binding signal (z-score),[2],2.11
same,glycan array binding signal (z-score),[3],-0.634
same,glycan array binding signal (z-score),[4],-0.147
same,glycan array binding signal (z-score),[5],0.336
same,glycan array binding signal (z-score),Fuc(a1-2)Gal(b1-3)GlcNAc,-0.454
same,glycan array binding signal (z-score),[6],0.526
same,glycan array binding signal (z-score),[7],-0.308
same,glycan array binding signal (z-score),[8],-0.316
same,glycan array binding signal (z-score),[9],-0.836
same,glycan array binding signal (z-score),[10],0.948
same,glycan array binding signal (z-score),[11],0.249
same,glycan array binding signal (z-score),[12],0.37
same,glycan array binding signal (z-score),[13],-0.201
same,glycan array binding signal (z-score),[14],-0.102
same,glycan array binding signal (z-score),[15],0.07
same,glycan array binding signal (z-score),[16],-0.029
same,glycan array binding signal (z-score),[17],-0.454
same,glycan array binding signal (z-score),[18],-0.131
same,glycan array binding signal (z-score),[19],-0.559
same,glycan array binding signal (z-score),Fuc(a1-2)Gal(b1-4)Glc,-0.767
same,glycan array binding signal (z-score),Fuc(a1-2)Gal(b1-4)Glc6S,-0.936
same,glycan array binding signal (z-score),Fuc(a1-2)Gal(b1-4)GlcNAc,0.297
same,glycan array binding signal (z-score),[20],-0.244
same,glycan array binding signal (z-score),[21],1.44
same,glycan array binding signal (z-score),[22],0.532
same,glycan array binding signal (z-score),[23],-0.046
same,glycan array binding signal (z-score),[24],-0.243

# Given with bars between the fields: entries from further up
binder | measurement | setting | value
R2-fiber (Pseudomonas aeruginosa), Q9S576 (protein) HHHHHHKVAKDLVVSLAYQVRTEDGVLVDESPVSAPLDYLHGHGSLISGLETALEGHEVGDKFDVAVGANDAYGQYDENLVQRVPKDVFMGVDELQVGMRFLAETDQGPVPVEITAVEDDHVVVDGNHMLAGQNLKFNVEVVAIREATEEELAHGHVHGAHDHHHDHDHDGCCGGHGHDHGHEHGGEGCCGGKGNGGCGCHENLYFQGVTAGMALAATDIPGLDASKLVSGVLAEQRLPVFARGLATAVSNSSDPNTATVPLMLTNHANGPVAGRYFYIQSMFYPDQNGNASQIATSYNATSEMYVRVSYAANPSIREWLPWQRCDIGGSFTKEADGELPGGVNLDSMVTSGWWSQSFTAQAASGANYPIVRAGLLHVYAASSNFIYQTYQAYDGESFYFRCRHSNTWFPWRRMWHGGDFNPSDYLLKSGFYWNALPGKPATFPPSAHNHDVGQLTSGILPLARGGVGSNTAAGARSTIGAGVPATASLGASGWWRDNDTGLIRQWGQVTCPADADASITFPIPFPTLCLGGYANQTSAFHPGTDASTGFRGATTTTAVIRNGYFAQAVLSWEAFGR | glycan array binding signal (z-score) | [11] | 0.249
same | glycan array binding signal (z-score) | [12] | 0.37
